# Data reported in PubChem BioAssay AID504834 (National Center for Advancing Translational Sciences (NCATS), 2011).
# “And” between values parts separate entries of the source, which are not always exact repeats. Identical values can stand only once. The whole screen tested about 320,000 compounds, of which about 22,000 (6.9%) were called active. This list was built around the results that the source calls inconclusive (neither active nor inactive); the mix of calls is not that of the screen. Calls follow the shape of the dose curve; as a rule, active = well fitted inhibition curve with a large enough effect; inconclusive = small, poorly fitted or top-dose-only effect, or another doubt; inactive = no such curve, though single readings can be large or run the other way. Potencies beside an inconclusive call are fits to weak or partial responses and may not hold up. More than one record can exist for a structure, and the calls need not agree.
# Assay: Primary qHTS for delayed death inhibitors of the malarial parasite plastid, 96 hour incubation
# Conditions: P. falciparum luciferase reporter growth; series mostly up to 28.7 µM; activity change, negative = inhibition: at the top concentration
# Procedure, shortened: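 Luminescence readout: decreased luciferase signal marks inhibited growth of reporter-expressing P. falciparum in infected red cells (2% hematocrit, 0.05% parasitemia final), exposed to compound two generations (96 h, 37 C, 5% CO2).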
# % is scaled to controls: 0 for no effect and ±100 for the full control effect; potency is read from the fitted curve at half-maximal effect.
SMILES,Potency,"activity change, negative = inhibition"
CCC(=O)Nn1c(C2CCC2)nc2ccccc2c1=O,"inconclusive: 16.5 µM [inhibitor, partial curve, poor fit]",
O=S(=O)(/N=C(\c1ccccc1)N1CCOCC1)c1ccc(Cl)cc1,"inconclusive: 18.5 µM [inhibitor, single point]",
O=C(CCCN1C(=O)C(c2ccccc2)Oc2cccnc21)NCc1ccccc1F (stereo unspecified),active: 2.08 µM,
Cc1cccc(C)c1NC(=O)c1cccc(N2C(=O)C3CCC(C)CC3C2=O)c1 (stereo unspecified),"inconclusive: 18.5 µM [inhibitor, single point]",
COC(=O)c1cc2occc2n1CC(=O)Nc1ccc(OC)c(OC)c1OC,,inactive: 135%
Cc1cc(C)c2nc(SC(C)C#N)cc(C)c2c1 (stereo unspecified),,inactive: 16.2%
COc1ccc(C(=O)Nn2cnnc2)c(OC)c1,,inactive: -12%
COc1cc2c(cc1OC)/C(=C/C(=O)c1ccc(F)cc1)NCC2,active: 11.7 µM,
CCCN(CC(=O)Nc1ccccc1OC)C(=O)c1cccc(S(=O)(=O)NCc2ccccc2)c1,active: 10.4 µM,
COc1ccc(N2CCN(C(=O)CCc3ccc(S(=O)(=O)NC(C)(C)C)cc3)CC2)cc1,"inconclusive: 18.5 µM [inhibitor, single point]",
CCCN1CCc2c(sc(NC(=O)c3ccc(S(=O)(=O)N(C)c4ccccc4)cc3)c2C(=O)NC)C1,active: 2.62 µM,
O=C1C(=O)N(Cc2cccnc2)C(c2cccc([N+](=O)[O-])c2)/C1=C(\O)c1ccc2c(c1)OCCO2 (stereo unspecified),"inconclusive: 18.5 µM [inhibitor, single point]",
O=C(N1CCOCC1)C12CC3CC(C1)CC(C(=O)N1CCOCC1)(C3)C2,"inconclusive: 9.28 µM [inhibitor, partial curve, poor fit]",
CN1C(=O)C(C)(C)c2cc(S(=O)(=O)N3CCN(c4cccc(Cl)c4)CC3)ccc21,,inactive: 6.31%
O=S1(=O)C=C(Oc2ccc3ccccc3c2)c2ccccc21,,inactive: -8.97%
Cc1ccccc1-c1nnn(CC(=O)Nc2ccc3c(c2)OCCO3)n1,"inconclusive: 20.8 µM [inhibitor, partial curve, poor fit]",
COC(=O)c1c(-c2c(Cl)cccc2Cl)noc1NC(=O)NN1CCOCC1,active: 1.31 µM,
COc1ccc(C(=O)NNC(=O)CSc2nnc(COc3ccc4ccccc4c3)n2C)cc1,active: 2.33 µM,
COc1ccc(C(=O)NNC(=O)CCn2nnc(-c3ccc(C)cc3)n2)cc1OC,,inactive: 39.6%
O=C(c1ccc(OC2CCN(Cc3ccccn3)CC2)cc1)N1CCC[C@H]1CO,active: 3.7 µM,
CCS(=O)(=O)n1nc(NCc2cccc(OC)c2)nc1NCc1cccc(OC)c1,"inconclusive: 18.5 µM [inhibitor, single point]",
Cc1ccc(C(=O)c2no[n+]([O-])c2C(=O)c2ccc(C)cc2)cc1,,inactive: 1.92%
Cc1ccc(CCNC(=O)CNS(=O)(=O)c2ccc3nc(C)sc3c2)cc1,"inconclusive: 10.4 µM [inhibitor, partial curve, poor fit]",
Oc1ccc(Br)cc1CNc1cccc2cccnc12,active: 9.28 µM,

SMILES,Potency,"activity change, negative = inhibition"
COc1ccc(CSc2nc(O)cc(=O)n2CC(C)C)cc1F,,inactive: 15.4%
Cc1c(Cl)cccc1NC(=O)Cn1c(CCC(=O)O)ccc1-c1ccccc1,,inactive: -17.1%
COc1cc(C(=O)O/N=C(\N)Cc2ccc([N+](=O)[O-])cc2)cc(OC)c1OC,"inconclusive: 20.8 µM [inhibitor, partial curve, poor fit]",
COc1ccccc1NS(=O)(=O)c1ccc(C)c(C(=O)NCC(c2ccco2)N2CCCCC2)c1 (stereo unspecified),"inconclusive: 9.28 µM [inhibitor, single point]",
COc1ccc(Nc2nccc(N(C)C)c2C#N)cc1,"inconclusive: 20.8 µM [inhibitor, single point]",
COc1ccccc1N(C)S(=O)(=O)c1ccc(C(=O)NCC2CCCCC2)cc1,"inconclusive: 18.5 µM [inhibitor, single point]",
COc1ccccc1C(=O)Nn1cnc2ccccc2c1=O,,inactive: -9.13%
Cn1nnnc1Sc1ncnc2scc(-c3cc4ccccc4o3)c12,"inconclusive: 1.65 µM [inhibitor, full curve]",
Cn1c(=O)n(C)c2cc(/C=C(/C#N)C(=O)NCc3ccco3)ccc21,,inactive: 14.3%
CC1CN(C(=O)c2cc(S(=O)(=O)N3CCCC3)ccc2Cl)CC(C)O1 (stereo unspecified),"inconclusive: 18.5 µM [inhibitor, single point]",
O=C1OCC(CO)(CO)N=C1NNc1ccc(Cl)c(Cl)c1,"inconclusive: 0.928 µM [inhibitor, partial curve, poor fit]",
CCCCNC(=O)CSc1nc2c(sc(=S)n2-c2cc(Cl)ccc2OC)c(=O)[nH]1,"inconclusive: 14.7 µM [inhibitor, single point]",
CCNc1cc(N2CCNCC2)ccc1[N+](=O)[O-],,inactive: 29.7%
CN1CCCN(C(=O)c2cc(-c3cccc4ccccc34)nc3ccccc23)CC1,"inconclusive: 10.4 µM [inhibitor, single point]",
COC(=O)c1ccc(NC(=O)CSc2nc3ccc(N4C(=O)C5C6C=CC(C6)C5C4=O)cc3s2)cc1 (stereo unspecified),active: 9.28 µM,
Cc1cc(C(=O)N/N=C2\CC(=O)CC(C)(C)C2)c(C)n1-c1ccccc1,"inconclusive: 3.7 µM [inhibitor, partial curve, poor fit]",
Cc1ccc2nc(/C(C#N)=C\c3cc(C)n(-c4cccc([N+](=O)[O-])c4)c3C)[nH]c2c1,active: 3.29 µM,
CCOC(=O)c1cc(-c2cccs2)nc2c1c(C)nn2-c1ccccn1,"inconclusive: 5.22 µM [inhibitor, partial curve, poor fit]",
O=C(CCN1CCN2CCCC2C1)N1c2ccccc2Sc2ccc(Cl)cc21 (stereo unspecified),inactive and active: 10.7 µM,
COCCNC(=S)N/N=C(\C)c1ccc2cc(OC)ccc2c1,"inconclusive: 10.4 µM [inhibitor, single point]",
Cn1c(CN2CCCC2)nc2cc(NS(=O)(=O)c3ccccc3)ccc21,,inactive: 0%
COc1ccc(/C=C/C(=O)c2c(C)nc3ccccn23)cc1,"inconclusive: 10.4 µM [inhibitor, single point]",
O=C1C(=O)N(CCN2CCOCC2)C(c2ccccc2F)/C1=C(\O)c1ccc(S(=O)(=O)N2CCOCC2)cc1 (stereo unspecified),,inactive: -27%
O=C(NN(c1ccccc1)c1ccccc1)c1ccccc1F,"inconclusive: 18.5 µM [inhibitor, single point]",

SMILES,Potency,"activity change, negative = inhibition"
COc1ccc(N2CC(C(=O)N[C@@H](C)C(=O)N3CCCCC3)CC2=O)cc1 (stereo partly specified),"inconclusive: 2.94 µM [inhibitor, single point]",
CCOC(=O)N1CCN(Cc2cn[nH]c2-c2cccc3ccccc23)CC1,"inconclusive: 13.1 µM [inhibitor, single point]",
C=CCOC(=O)C1=C(C)NC(C)=C(C(=O)OCC=C)C1c1ccco1,"inconclusive: 5.86 µM [inhibitor, partial curve, poor fit]",
COc1ccc(C(C)=O)cc1COC(=O)CNC(=O)c1ccccc1F,,inactive: 17.5%
O=c1c2ccccc2nc(SCc2ccc([N+](=O)[O-])cc2)n1-c1ccccc1,"inconclusive: 11.7 µM [inhibitor, partial curve, poor fit]",
COc1ccccc1-c1cnnc(N/N=C/c2ccc(-c3cccc(Br)c3)o2)n1,"inconclusive: 1.47 µM [inhibitor, full curve, poor fit]",
COc1ccc(CCC(=O)Nc2ccc(S(=O)(=O)Nc3nccc(C)n3)cc2)cc1,,inactive: -19.6%
CC(=O)C(Cc1ccccc1)(Cc1ccccc1)C(C)=O,"inconclusive: 18.5 µM [inhibitor, single point]",
CC(=O)CSc1ncnc2nc[nH]c12,"inconclusive: 0.0294 µM [inhibitor, full curve, poor fit]",
CCn1c(SCC(=O)NNC(=O)c2ccc(C)cc2)nnc1C1CC1,"inconclusive: 8.28 µM [inhibitor, partial curve]",
CCOc1ccc(CNC(=O)CCSCc2ccccc2F)cc1OC,"inconclusive: 20.8 µM [inhibitor, single point]",
O=C(N/N=C/c1ccc(-n2ccnc2)cc1)c1cccs1,,inactive: 46.6%
CC(C)Cc1nnc(NC(=O)C23CC4CC(CC(C4)C2)C3)s1,"inconclusive: 18.5 µM [inhibitor, single point]",
NC(=O)NN=C1C2CCCC1C(c1ccccc1)NC2c1ccccc1 (stereo unspecified),"inconclusive: 0.0738 µM [inhibitor, full curve, poor fit]",
Cc1cc(C)cc(NC(=O)C(OC(=O)c2ccc(O)cc2)c2ccccc2)c1 (stereo unspecified),"inconclusive: 11.7 µM [inhibitor, single point]",
CC1(C)CC(=O)C=C(NC2CCCCCCC2)C1,active: 3.7 µM,
CCOC(=O)c1ccc(NC(=O)c2nc[nH]c2C(=O)NCC(=O)OC(C)(C)C)cc1,"inconclusive: 18.5 µM [inhibitor, partial curve]",
Cc1ccc(C(=O)C(C)OC(=O)CCS(=O)(=O)c2ccc(C)cc2)cc1 (stereo unspecified),,inactive: -7.47%
CCN1CCN(S(=O)(=O)c2ccc(C(=O)Nc3sc4c(c3C(N)=O)CCN(CC)C4)cc2)CC1,"inconclusive: 11.7 µM [inhibitor, single point]",
CC12CCC(=O)N1C(C(=O)Nc1nnc(SCc3ccccc3)s1)CS2 (stereo unspecified),,inactive: -28.3%
Cc1ccc(NC(=O)Cn2cnc([N+](=O)[O-])c2)cc1C,"inconclusive: 9.28 µM [inhibitor, single point]",
CCN(CC)C(=O)c1ccc(NC(=O)Nc2ccccc2F)cc1,,inactive: 414%
Cc1ccccc1NCC(=O)N/N=C/c1c(C)c(C(=O)c2ccc(Cl)cc2)n2ccccc12,active: 4.65 µM,
